Assay results as given in the supplement of paper PMC12823440, “Inhibitors supercharge kinase turnover through native proteolytic circuits” (Nature, 2025).
Counter-ions that a name gives are not always drawn. Some of the results follow. The calls rarely recur for the same compound in another form.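 Kinases, fused to nanoluciferase, were expressed in K562 cells; luminescence was measured every 4 h from 2 to 18 h as percent of control (DMSO = 100%, positive control = 0%). A time point is decreased if signal falls significantly (2 sigma). Hits were called by the authors by a rule that is not shown; the count of time points alone does not decide it.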

Protein sequences, listed by entry. Tags and fused reporters are not part of them. Lines headed by an entry give the natural chain unless they say otherwise; changes in a name come on top.
UniProt P50613: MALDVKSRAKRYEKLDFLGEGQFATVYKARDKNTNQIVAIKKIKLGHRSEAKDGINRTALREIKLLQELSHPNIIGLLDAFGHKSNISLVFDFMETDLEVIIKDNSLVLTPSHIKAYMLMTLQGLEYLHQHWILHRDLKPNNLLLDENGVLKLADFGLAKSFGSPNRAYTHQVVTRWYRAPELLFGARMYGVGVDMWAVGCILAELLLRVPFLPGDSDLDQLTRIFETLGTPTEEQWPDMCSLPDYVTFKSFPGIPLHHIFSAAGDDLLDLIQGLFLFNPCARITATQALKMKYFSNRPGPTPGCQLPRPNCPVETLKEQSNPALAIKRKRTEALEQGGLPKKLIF
UniProt P50750, whole entry: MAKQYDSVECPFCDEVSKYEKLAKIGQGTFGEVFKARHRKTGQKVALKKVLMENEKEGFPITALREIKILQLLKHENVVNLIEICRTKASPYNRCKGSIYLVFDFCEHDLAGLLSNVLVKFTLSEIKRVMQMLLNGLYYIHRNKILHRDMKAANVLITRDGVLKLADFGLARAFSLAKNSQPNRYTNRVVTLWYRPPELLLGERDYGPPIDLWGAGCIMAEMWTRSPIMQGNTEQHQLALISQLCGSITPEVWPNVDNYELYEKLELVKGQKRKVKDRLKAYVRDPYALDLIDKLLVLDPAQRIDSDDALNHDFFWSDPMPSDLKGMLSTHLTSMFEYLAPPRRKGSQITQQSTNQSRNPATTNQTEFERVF
UniProt O96017, whole entry: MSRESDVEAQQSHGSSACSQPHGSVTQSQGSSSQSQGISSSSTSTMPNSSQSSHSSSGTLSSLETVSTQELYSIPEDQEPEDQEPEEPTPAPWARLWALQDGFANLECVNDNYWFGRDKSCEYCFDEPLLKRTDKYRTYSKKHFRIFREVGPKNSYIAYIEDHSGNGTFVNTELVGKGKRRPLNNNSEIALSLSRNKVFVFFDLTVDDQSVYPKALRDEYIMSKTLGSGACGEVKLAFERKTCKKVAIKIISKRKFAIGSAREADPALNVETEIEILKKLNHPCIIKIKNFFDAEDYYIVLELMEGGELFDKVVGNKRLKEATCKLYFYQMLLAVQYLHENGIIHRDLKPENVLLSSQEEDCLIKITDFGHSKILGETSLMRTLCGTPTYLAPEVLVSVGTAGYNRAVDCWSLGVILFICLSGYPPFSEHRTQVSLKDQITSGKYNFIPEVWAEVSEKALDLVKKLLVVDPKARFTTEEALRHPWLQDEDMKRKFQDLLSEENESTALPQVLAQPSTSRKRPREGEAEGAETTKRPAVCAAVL
UniProt P07333, whole entry: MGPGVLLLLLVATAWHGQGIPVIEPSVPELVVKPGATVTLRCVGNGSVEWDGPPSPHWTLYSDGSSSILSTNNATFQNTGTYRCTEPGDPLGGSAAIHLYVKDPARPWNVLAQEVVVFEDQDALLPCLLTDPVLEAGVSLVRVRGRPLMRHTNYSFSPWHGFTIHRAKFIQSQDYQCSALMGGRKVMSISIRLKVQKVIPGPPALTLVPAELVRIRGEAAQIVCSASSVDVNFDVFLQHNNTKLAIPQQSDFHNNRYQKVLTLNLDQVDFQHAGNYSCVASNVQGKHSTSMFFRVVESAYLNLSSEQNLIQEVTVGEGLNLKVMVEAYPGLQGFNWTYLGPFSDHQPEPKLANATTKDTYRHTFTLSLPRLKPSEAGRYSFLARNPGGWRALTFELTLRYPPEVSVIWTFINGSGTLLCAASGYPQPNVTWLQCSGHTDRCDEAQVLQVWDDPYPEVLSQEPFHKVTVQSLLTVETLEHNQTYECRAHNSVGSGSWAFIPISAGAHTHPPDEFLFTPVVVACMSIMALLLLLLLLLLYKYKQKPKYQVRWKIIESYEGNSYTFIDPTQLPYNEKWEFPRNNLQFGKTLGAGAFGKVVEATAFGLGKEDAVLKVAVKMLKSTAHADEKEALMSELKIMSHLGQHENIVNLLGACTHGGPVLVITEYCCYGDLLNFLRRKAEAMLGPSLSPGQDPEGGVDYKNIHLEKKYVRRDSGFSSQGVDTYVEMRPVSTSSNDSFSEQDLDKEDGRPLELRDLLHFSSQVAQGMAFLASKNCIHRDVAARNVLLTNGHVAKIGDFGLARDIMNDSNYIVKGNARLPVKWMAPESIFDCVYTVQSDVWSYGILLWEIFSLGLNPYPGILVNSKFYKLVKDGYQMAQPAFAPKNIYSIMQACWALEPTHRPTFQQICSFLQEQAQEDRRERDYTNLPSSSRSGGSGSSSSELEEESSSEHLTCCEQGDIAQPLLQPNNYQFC
UniProt P41240: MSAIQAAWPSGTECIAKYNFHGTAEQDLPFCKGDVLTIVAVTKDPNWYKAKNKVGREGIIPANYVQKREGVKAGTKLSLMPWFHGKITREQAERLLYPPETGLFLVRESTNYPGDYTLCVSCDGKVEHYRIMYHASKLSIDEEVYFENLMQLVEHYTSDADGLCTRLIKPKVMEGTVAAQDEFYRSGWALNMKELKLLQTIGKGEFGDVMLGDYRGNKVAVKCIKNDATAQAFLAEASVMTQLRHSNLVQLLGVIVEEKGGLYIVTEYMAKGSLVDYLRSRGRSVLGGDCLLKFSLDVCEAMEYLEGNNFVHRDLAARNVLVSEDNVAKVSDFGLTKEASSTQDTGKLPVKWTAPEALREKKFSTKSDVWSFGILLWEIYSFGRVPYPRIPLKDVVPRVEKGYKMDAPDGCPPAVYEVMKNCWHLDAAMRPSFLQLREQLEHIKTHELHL
UniProt P48729: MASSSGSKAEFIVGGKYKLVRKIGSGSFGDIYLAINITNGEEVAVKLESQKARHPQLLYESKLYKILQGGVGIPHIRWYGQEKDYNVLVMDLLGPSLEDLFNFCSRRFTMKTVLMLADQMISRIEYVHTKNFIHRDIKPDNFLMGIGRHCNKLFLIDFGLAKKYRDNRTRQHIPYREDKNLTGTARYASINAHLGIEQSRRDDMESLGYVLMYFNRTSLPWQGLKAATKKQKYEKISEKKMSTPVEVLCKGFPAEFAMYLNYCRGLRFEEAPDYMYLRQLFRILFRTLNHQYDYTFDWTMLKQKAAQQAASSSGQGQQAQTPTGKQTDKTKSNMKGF
UniProt P48730: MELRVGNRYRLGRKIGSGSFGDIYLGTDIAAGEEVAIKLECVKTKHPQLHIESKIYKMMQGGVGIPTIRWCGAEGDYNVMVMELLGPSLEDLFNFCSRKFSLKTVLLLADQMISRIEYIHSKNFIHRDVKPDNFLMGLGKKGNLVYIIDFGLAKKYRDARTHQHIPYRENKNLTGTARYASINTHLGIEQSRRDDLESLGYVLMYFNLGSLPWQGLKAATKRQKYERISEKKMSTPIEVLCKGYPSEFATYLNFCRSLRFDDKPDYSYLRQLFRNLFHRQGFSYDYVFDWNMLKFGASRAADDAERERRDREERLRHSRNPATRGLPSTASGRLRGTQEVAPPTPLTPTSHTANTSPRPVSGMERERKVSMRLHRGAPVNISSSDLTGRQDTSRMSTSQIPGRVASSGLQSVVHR
UniProt Q08345: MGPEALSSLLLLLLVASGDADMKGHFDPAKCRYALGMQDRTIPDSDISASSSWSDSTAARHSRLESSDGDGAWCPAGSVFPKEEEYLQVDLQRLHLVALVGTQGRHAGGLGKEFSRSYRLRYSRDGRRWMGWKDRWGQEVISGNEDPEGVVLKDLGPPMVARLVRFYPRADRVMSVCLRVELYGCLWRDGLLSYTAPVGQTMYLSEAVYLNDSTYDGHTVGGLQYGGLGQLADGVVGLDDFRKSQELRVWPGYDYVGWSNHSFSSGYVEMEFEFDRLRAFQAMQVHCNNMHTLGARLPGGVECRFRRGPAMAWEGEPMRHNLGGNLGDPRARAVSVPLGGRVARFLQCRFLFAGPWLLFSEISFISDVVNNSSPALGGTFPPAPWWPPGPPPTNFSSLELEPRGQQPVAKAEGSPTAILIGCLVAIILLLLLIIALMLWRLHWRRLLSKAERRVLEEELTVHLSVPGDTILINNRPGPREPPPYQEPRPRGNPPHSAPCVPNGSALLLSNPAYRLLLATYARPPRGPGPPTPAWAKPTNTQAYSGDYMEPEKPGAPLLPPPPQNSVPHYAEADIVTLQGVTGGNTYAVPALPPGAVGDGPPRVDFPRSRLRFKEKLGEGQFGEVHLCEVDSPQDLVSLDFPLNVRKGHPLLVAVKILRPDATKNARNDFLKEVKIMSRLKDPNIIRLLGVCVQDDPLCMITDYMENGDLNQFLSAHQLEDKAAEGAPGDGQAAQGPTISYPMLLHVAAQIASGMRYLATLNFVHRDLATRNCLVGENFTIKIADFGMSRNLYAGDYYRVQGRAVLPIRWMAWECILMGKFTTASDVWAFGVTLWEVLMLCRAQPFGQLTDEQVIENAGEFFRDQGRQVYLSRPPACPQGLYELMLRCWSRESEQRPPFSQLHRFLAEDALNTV
UniProt Q9Y463, whole entry, looked up: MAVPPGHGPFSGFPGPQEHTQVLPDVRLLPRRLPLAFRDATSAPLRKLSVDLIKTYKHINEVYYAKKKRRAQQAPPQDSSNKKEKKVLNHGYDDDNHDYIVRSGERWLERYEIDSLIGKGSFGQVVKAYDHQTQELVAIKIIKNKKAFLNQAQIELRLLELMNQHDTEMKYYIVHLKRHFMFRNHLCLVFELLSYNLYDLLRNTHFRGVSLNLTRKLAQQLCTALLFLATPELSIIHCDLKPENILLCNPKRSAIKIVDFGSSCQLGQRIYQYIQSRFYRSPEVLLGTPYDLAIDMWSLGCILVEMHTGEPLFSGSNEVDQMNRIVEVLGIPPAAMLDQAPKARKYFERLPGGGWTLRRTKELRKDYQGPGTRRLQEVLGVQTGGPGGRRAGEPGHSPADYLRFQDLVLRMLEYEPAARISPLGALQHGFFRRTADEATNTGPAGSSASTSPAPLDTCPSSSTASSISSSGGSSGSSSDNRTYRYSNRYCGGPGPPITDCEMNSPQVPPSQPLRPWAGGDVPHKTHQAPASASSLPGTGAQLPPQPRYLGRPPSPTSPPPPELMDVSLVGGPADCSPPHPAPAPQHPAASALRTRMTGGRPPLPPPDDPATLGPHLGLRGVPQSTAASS
UniProt Q92630: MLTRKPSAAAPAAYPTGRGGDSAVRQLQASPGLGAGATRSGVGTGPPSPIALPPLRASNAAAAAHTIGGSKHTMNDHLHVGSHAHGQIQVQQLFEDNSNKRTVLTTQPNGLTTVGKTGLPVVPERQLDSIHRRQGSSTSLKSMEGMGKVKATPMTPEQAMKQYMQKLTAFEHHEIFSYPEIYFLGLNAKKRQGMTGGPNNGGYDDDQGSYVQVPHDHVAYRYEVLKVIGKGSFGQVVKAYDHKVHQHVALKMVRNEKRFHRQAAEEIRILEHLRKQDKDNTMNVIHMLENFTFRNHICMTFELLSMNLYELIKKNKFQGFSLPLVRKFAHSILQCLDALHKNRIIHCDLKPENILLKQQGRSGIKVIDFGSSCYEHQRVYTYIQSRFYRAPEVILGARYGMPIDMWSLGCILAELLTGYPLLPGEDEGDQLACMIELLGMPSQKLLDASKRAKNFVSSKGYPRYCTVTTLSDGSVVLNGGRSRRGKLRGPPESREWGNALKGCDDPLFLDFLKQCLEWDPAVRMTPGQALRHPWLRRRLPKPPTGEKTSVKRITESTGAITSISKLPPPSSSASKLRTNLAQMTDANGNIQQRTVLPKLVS

Experiments:
Experiment in all cases: kinase-Nluc reporter destabilization hit call (1 = scored as downregulated) (binary); higher = compound decreases kinase abundance
Settings in all cases: K562, 2-18 h
CDK7 = CDK7 (UniProt P50613)
CDK9 = CDK9 (UniProt P50750)
CHEK2 = CHEK2 (UniProt O96017)
CSF1R = CSF1R (UniProt P07333)
CSK = CSK (UniProt P41240)
CSNK1A1 = CSNK1A1 (UniProt P48729)
CSNK1D = CSNK1D (UniProt P48730)
DDR1 = DDR1 (UniProt Q08345)
DYRK1B = DYRK1B (UniProt Q9Y463)
DYRK2 = DYRK2 (UniProt Q92630)

Measured: kinase-Nluc reporter destabilization hit call

C=CC(=O)Nc1cc(Nc2nccc(-c3cn(C)c4ccccc34)n2)c(OC)cc1N(C)CCN(C)C [Osimertinib]
inactive: CDK7; 2.5 µM 0 | CDK9; 2.5 µM 0 | CHEK2; 2.5 µM 0 | CSF1R; 2.5 µM 0 | CSK; 2.5 µM 0 | CSNK1A1; 2.5 µM 0 | CSNK1D; 2.5 µM 0 | DDR1; 2.5 µM 0 | DYRK1B; 2.5 µM 0 | DYRK2; 2.5 µM 0

CC(C)(C)n1nc(-c2cccc3ccccc23)c2c(N)ncnc21 [1-Naphthyl PP1 (hydrochloride)]
inactive: CDK7; 10 µM 0 | CDK9; 10 µM 0 | CHEK2; 10 µM 0 | CSF1R; 10 µM 0 | CSK; 10 µM 0 | CSNK1A1; 10 µM 0 | DDR1; 10 µM 0 | DYRK1B; 10 µM 0 | DYRK2; 10 µM 0

CNC(=O)c1ccccc1Nc1cc(Nc2ccc(N3CCOCC3)cc2OC)ncc1C(F)(F)F [PND-1186 (hydrochloride)]
inactive: CDK7; 10 µM 0 | CDK9; 10 µM 0 | CHEK2; 10 µM 0 | CSF1R; 10 µM 0 | CSK; 10 µM 0 | CSNK1A1; 10 µM 0 | CSNK1D; 10 µM 0 | DDR1; 10 µM 0 | DYRK1B; 10 µM 0 | DYRK2; 10 µM 0

COC(=O)[C@H](CC(C)C)NC(=O)c1ccc(NC[C@@H](N)CS)cc1-c1cccc2ccccc12 [GGTI298 (Trifluoroacetate)]
inactive: CDK7; 10 µM 0 | CDK9; 10 µM 0 | CHEK2; 10 µM 0 | CSF1R; 10 µM 0 | CSK; 10 µM 0 | CSNK1A1; 10 µM 0 | CSNK1D; 10 µM 0 | DDR1; 10 µM 0 | DYRK1B; 10 µM 0 | DYRK2; 10 µM 0

CC(C)NC[C@@H](C(=O)N1CCN(c2ncnc3c2[C@H](C)C[C@H]3O)CC1)c1ccc(Cl)cc1 [Ipatasertib]
inactive: CDK7; 10 µM 0 | CDK9; 10 µM 0 | CHEK2; 10 µM 0 | CSF1R; 10 µM 0 | CSK; 10 µM 0 | CSNK1A1; 10 µM 0 | CSNK1D; 10 µM 0 | DDR1; 10 µM 0 | DYRK1B; 10 µM 0 | DYRK2; 10 µM 0

CNC(=O)c1ccccc1Nc1cc(Nc2ccc(N3CCOCC3)cc2OC)ncc1C(F)(F)F
inactive: CDK7; 10 µM 0 | CDK9; 10 µM 0 | CHEK2; 10 µM 0 | CSF1R; 10 µM 0 | CSK; 10 µM 0 | CSNK1A1; 10 µM 0 | CSNK1D; 10 µM 0 | DDR1; 10 µM 0 | DYRK1B; 10 µM 0 | DYRK2; 10 µM 0

CC(=O)c1c(C)c2cnc(Nc3ccc(N4CCNCC4)cn3)nc2n(C2CCCC2)c1=O [Palbociclib (monohydrochloride)]
inactive: CDK7; 10 µM 0 | CDK9; 10 µM 0 | CHEK2; 10 µM 0 | CSF1R; 10 µM 0 | CSK; 10 µM 0 | CSNK1D; 10 µM 0 | DDR1; 10 µM 0 | DYRK1B; 10 µM 0 | DYRK2; 10 µM 0

COc1ccnc(C[S+]([O-])c2nc3cc(-n4cccc4)ccc3[nH]2)c1C (configuration not stated) [Ilaprazole]
inactive: CDK7; 10 µM 0 | CDK9; 10 µM 0 | CHEK2; 10 µM 0 | CSF1R; 10 µM 0 | CSK; 10 µM 0 | CSNK1A1; 10 µM 0 | CSNK1D; 10 µM 0 | DDR1; 10 µM 0 | DYRK1B; 10 µM 0 | DYRK2; 10 µM 0

C#Cc1cccc(Nc2ncnc3cc(OCCOC)c(OCCO)cc23)c1 [Desmethyl Erlotinib (hydrochloride)]
inactive: CDK7; 10 µM 0 | CDK9; 10 µM 0 | CHEK2; 10 µM 0 | CSF1R; 10 µM 0 | CSK; 10 µM 0 | CSNK1A1; 10 µM 0 | CSNK1D; 10 µM 0 | DDR1; 10 µM 0 | DYRK1B; 10 µM 0 | DYRK2; 10 µM 0

CNC(=O)c1ccc(Nc2ncc(C(F)(F)F)c(NCc3nccnc3N(C)S(C)(=O)=O)n2)cc1 [Defactinib]
inactive: CDK7; 10 µM 0 | CDK9; 10 µM 0 | CHEK2; 10 µM 0 | CSF1R; 10 µM 0 | CSK; 10 µM 0 | CSNK1A1; 10 µM 0 | CSNK1D; 10 µM 0 | DDR1; 10 µM 0 | DYRK1B; 10 µM 0 | DYRK2; 10 µM 0

CC(=O)c1c(C)c2cnc(Nc3ccc(N4CCNCC4)cn3)nc2n(C2CCCC2)c1=O [Palbociclib (isethionate)]
inactive: CDK7; 10 µM 0 | CDK9; 10 µM 0 | CHEK2; 10 µM 0 | CSF1R; 10 µM 0 | CSK; 10 µM 0 | CSNK1D; 10 µM 0 | DDR1; 10 µM 0 | DYRK1B; 10 µM 0 | DYRK2; 10 µM 0

Copied from the results shown (2 entries):
COc1ccnc(C[S+]([O-])c2nc3cc(-n4cccc4)ccc3[nH]2)c1C (configuration not stated) [Ilaprazole]
inactive: CDK7; 10 µM 0 | CDK9; 10 µM 0 | CHEK2; 10 µM 0 | CSF1R; 10 µM 0 | CSK; 10 µM 0 | CSNK1A1; 10 µM 0 | CSNK1D; 10 µM 0 | DDR1; 10 µM 0 | DYRK1B; 10 µM 0 | DYRK2; 10 µM 0

C#Cc1cccc(Nc2ncnc3cc(OCCOC)c(OCCO)cc23)c1 [Desmethyl Erlotinib (hydrochloride)]
inactive: CDK7; 10 µM 0 | CDK9; 10 µM 0 | CHEK2; 10 µM 0 | CSF1R; 10 µM 0 | CSK; 10 µM 0 | CSNK1A1; 10 µM 0 | CSNK1D; 10 µM 0 | DDR1; 10 µM 0 | DYRK1B; 10 µM 0 | DYRK2; 10 µM 0

(listing goes on)

COc1ccnc(C[S+]([O-])c2nc3cc(-n4cccc4)ccc3[nH]2)c1C (configuration not stated) [Ilaprazole (sodium)]
inactive: CDK7; 10 µM 0 | CDK9; 10 µM 0 | CHEK2; 10 µM 0 | CSF1R; 10 µM 0 | CSK; 10 µM 0 | CSNK1A1; 10 µM 0 | CSNK1D; 10 µM 0 | DDR1; 10 µM 0 | DYRK1B; 10 µM 0 | DYRK2; 10 µM 0

COC(=O)[C@H](CC(C)C)NC(=O)c1ccc(NC[C@@H](N)CS)cc1-c1cccc2ccccc12
inactive: CDK7; 10 µM 0 | CDK9; 10 µM 0 | CHEK2; 10 µM 0 | CSF1R; 10 µM 0 | CSK; 10 µM 0 | CSNK1A1; 10 µM 0 | CSNK1D; 10 µM 0 | DDR1; 10 µM 0 | DYRK1B; 10 µM 0 | DYRK2; 10 µM 0

C=CC(=O)Nc1cc(Nc2nccc(-c3cn(C)c4ccccc34)n2)c(OC)cc1N(C)CCN(C)C [Osimertinib mesylate]
inactive: CDK7; 2.5 µM 0 | CDK9; 2.5 µM 0 | CHEK2; 2.5 µM 0 | CSF1R; 2.5 µM 0 | CSK; 2.5 µM 0 | CSNK1A1; 2.5 µM 0 | CSNK1D; 2.5 µM 0 | DDR1; 2.5 µM 0 | DYRK1B; 2.5 µM 0 | DYRK2; 2.5 µM 0

C[C@H](Nc1cc(-c2cnn(C)c2)cc(Nc2cnccn2)n1)c1ccc(F)cc1 [Ilginatinib hydrochloride]
active: CDK7; 2.5 µM 1 | DYRK2; 2.5 µM 1
inactive: CDK9; 2.5 µM 0 | CHEK2; 2.5 µM 0 | CSF1R; 2.5 µM 0 | CSK; 2.5 µM 0 | CSNK1A1; 2.5 µM 0 | CSNK1D; 2.5 µM 0 | DDR1; 2.5 µM 0 | DYRK1B; 2.5 µM 0

CNc1ncc2cc(-c3ccc(-c4cccc(C)n4)cc3Cl)c(=O)n(C[C@H]3OC[C@H](N)CO3)c2n1 [G-5555 (hydrochloride)]
inactive: CDK7; 10 µM 0 | CDK9; 10 µM 0 | CHEK2; 10 µM 0 | CSF1R; 10 µM 0 | CSK; 10 µM 0 | CSNK1A1; 10 µM 0 | CSNK1D; 10 µM 0 | DDR1; 10 µM 0 | DYRK1B; 10 µM 0 | DYRK2; 10 µM 0

CCc1nc(C(N)=O)c(Nc2ccc(N3CCC(N4CCN(C)CC4)CC3)c(OC)c2)nc1NC1CCOCC1 [Gilteritinib hemifumarate]
inactive: CDK7; 2 µM 0 | CDK9; 2 µM 0 | CHEK2; 2 µM 0 | CSF1R; 2 µM 0 | CSK; 2 µM 0 | CSNK1A1; 2 µM 0 | CSNK1D; 2 µM 0 | DDR1; 2 µM 0 | DYRK1B; 2 µM 0 | DYRK2; 2 µM 0

CC(C)Oc1ccc(-c2nn([C@@H](C)c3oc4ccc(F)cc4c(=O)c3-c3cccc(F)c3)c3ncnc(N)c23)cc1F [Umbralisib (hydrochloride)]
inactive: CDK7; 2.5 µM 0 | CDK9; 2.5 µM 0 | CHEK2; 2.5 µM 0 | CSF1R; 2.5 µM 0 | CSK; 2.5 µM 0 | CSNK1A1; 2.5 µM 0 | CSNK1D; 2.5 µM 0 | DDR1; 2.5 µM 0 | DYRK1B; 2.5 µM 0 | DYRK2; 2.5 µM 0

CNC(=O)c1ccc(Nc2ncc(C(F)(F)F)c(NCc3nccnc3N(C)S(C)(=O)=O)n2)cc1 [Defactinib (hydrochloride)]
inactive: CDK7; 10 µM 0 | CDK9; 10 µM 0 | CHEK2; 10 µM 0 | CSF1R; 10 µM 0 | CSK; 10 µM 0 | CSNK1A1; 10 µM 0 | CSNK1D; 10 µM 0 | DDR1; 10 µM 0 | DYRK1B; 10 µM 0 | DYRK2; 10 µM 0

COc1cc2nccc(Oc3ccc(NC(=O)C4(C(=O)Nc5ccc(F)cc5)CC4)cc3)c2cc1OC [Cabozantinib]
inactive: CDK7; 2.5 µM 0 | CDK9; 2.5 µM 0 | CHEK2; 2.5 µM 0 | CSF1R; 2.5 µM 0 | CSK; 2.5 µM 0 | CSNK1A1; 2.5 µM 0 | CSNK1D; 2.5 µM 0 | DDR1; 2.5 µM 0 | DYRK1B; 2.5 µM 0 | DYRK2; 2.5 µM 0

C[C@H](CCC(=O)NCCS(=O)(=O)O)[C@H]1CC[C@H]2[C@@H]3[C@@H](O)C[C@@H]4C[C@H](O)CC[C@]4(C)[C@H]3CC[C@]12C [Tauroursodeoxycholate (sodium)]
inactive: CDK7; 10 µM 0 | CDK9; 10 µM 0 | CHEK2; 10 µM 0 | CSF1R; 10 µM 0 | CSK; 10 µM 0 | CSNK1A1; 10 µM 0 | CSNK1D; 10 µM 0 | DDR1; 10 µM 0 | DYRK1B; 10 µM 0 | DYRK2; 10 µM 0

Clc1ccc(C2(c3ccc(-c4cn[nH]c4)cc3)CCNCC2)cc1 [AT7867 (dihydrochloride)]
inactive: CDK7; 2.5 µM 0 | CDK9; 2.5 µM 0 | CHEK2; 2.5 µM 0 | CSF1R; 2.5 µM 0 | CSK; 2.5 µM 0 | CSNK1A1; 2.5 µM 0 | CSNK1D; 2.5 µM 0 | DDR1; 2.5 µM 0 | DYRK1B; 2.5 µM 0 | DYRK2; 2.5 µM 0

O=C1Nc2ccccc2/C1=C/c1ccccn1 [(E/Z)-GSK-3β inhibitor 1]
inactive: CDK7; 10 µM 0 | CDK9; 10 µM 0 | CHEK2; 10 µM 0 | CSF1R; 10 µM 0 | CSK; 10 µM 0 | CSNK1A1; 10 µM 0 | CSNK1D; 10 µM 0 | DDR1; 10 µM 0 | DYRK1B; 10 µM 0 | DYRK2; 10 µM 0

Cc1cccc(-c2[nH]c(CNc3ccccc3F)nc2-c2ccc3ncnn3c2)n1 [Vactosertib]
inactive: CDK7; 2.5 µM 0 | CDK9; 2.5 µM 0 | CHEK2; 2.5 µM 0 | CSF1R; 2.5 µM 0 | CSK; 2.5 µM 0 | CSNK1A1; 2.5 µM 0 | CSNK1D; 2.5 µM 0 | DDR1; 2.5 µM 0 | DYRK1B; 2.5 µM 0 | DYRK2; 2.5 µM 0

COc1ccc2c(c1)C(c1ccc(F)cc1)=C(CN1CCCC1)CO2 [AX-024 hydrochloride]
inactive: CDK7; 10 µM 0 | CDK9; 10 µM 0 | CHEK2; 10 µM 0 | CSF1R; 10 µM 0 | CSK; 10 µM 0 | CSNK1A1; 10 µM 0 | CSNK1D; 10 µM 0 | DDR1; 10 µM 0 | DYRK1B; 10 µM 0 | DYRK2; 10 µM 0
